Assay results as given in PubChem BioAssay AID504467 (National Center for Advancing Translational Sciences (NCATS), 2011).
Screen size: about 330,000 compounds; about 7,700 (2.3%) were called active. Inconclusive means that the source gave no clear call. Such entries were picked first, then a sample of the others. The call rests on the fitted dose curve; in most records, active means well fitted inhibition curve with a large enough effect; inconclusive means small, poorly fitted or top-dose-only effect, or effect the other way; inactive means flat fitted curve, though single readings scatter. Potencies beside an inconclusive call are fits to weak or partial responses and may not hold up.

Assay: qHTS screen for small molecules that inhibit ELG1-dependent DNA repair in human embryonic kidney (HEK293T) cells expressing luciferase-tagged ELG1; further: nearly all actives have a fitted effect of over 55% in size
Details: HEK293T ELG1-luciferase reporter, luminescence, 16 h, DNA damage induced by 5-fluorouridine; activity change, negative = inhibition: at 46.1 µM (top of the series)
Procedure, shortened: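 DMSO vehicle served as the neutral condition. Each well held 2,000 cells given 5-fluorouridine plus compound; after 16 hr at 37 °C/5% CO2, ONE-Glo was added and luciferase measured 30 min later.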
On the % scale 0 is the no-effect control and ±100 the full control effect; potency means the concentration at half of the fitted maximal effect.

SMILES | Potency | activity change, negative = inhibition
Cc1nn(-c2ccccc2)c2nc(N)c(C#N)c(-c3ccc(F)cc3)c12 | inconclusive: 20.6 µM [inhibitor, single point] | –
C=CCNC(=O)c1onc(CSc2ccc(Cl)cc2)c1C(=O)NCC=C | – | inactive: -1.24%
CCOc1ccc(S(=O)(=O)NCCC(=O)NCCCSc2ccccc2)cc1 | – | inactive: -14%
CCCC(=O)N(Cc1cc(=O)[nH]c2ccccc12)c1ccc(OC)cc1 | – | inactive: -18.2%
O=[N+]([O-])c1cccc(-c2ccc(/C=N/NC(=S)NCc3ccco3)o2)c1 | inconclusive: 2.91 µM [inhibitor, partial curve, poor fit] | –
CN1CCCC(OC(=O)c2ccc(S(=O)(=O)N(C)C)cc2)C1 (stereo not drawn) | inconclusive: 3.26 µM [activator, partial curve] | –
CC(C)Nc1nc(-c2cccnc2)nc(-c2ccccc2)c1C#N | inconclusive: 23.1 µM [inhibitor, single point] | –
CC(=O)NS(=O)(=O)c1ccc2sc(C)nc2c1 | – | inactive: 3.42%
CCCCNC(=O)Cn1cnc2sc(C)c(S(=O)(=O)N3CCN(c4ccccc4OC)CC3)c2c1=O | – | inactive: 3.7%
CN(C(=O)CN1C(=O)C2C3CC(C(Br)C3Br)C2C1=O)C1CCCCC1 (stereo not drawn) | – | inactive: 19.5%
Cc1ccc(C)c2[nH]c(=O)c(CN(Cc3ccc4c(c3)OCO4)Cc3nnnn3Cc3ccco3)cc12 | inconclusive: 18.4 µM [inhibitor, single point] | –
O=C(NCc1ccco1)c1cnn2c1NC(c1ccccc1)CC2C(F)(F)F (stereo not drawn) | inconclusive: 20.6 µM [inhibitor, partial curve] | –
COC(=O)c1cc(OC)c(OC)cc1NC(=O)c1ccc(C)o1 | active: 23.1 µM | –
Cn1c(SCc2ccccc2)nnc1-c1cccs1 | inconclusive: 14.6 µM [activator, partial curve] | –
CCCCN1CCc2c(c3ccccc3n2Cc2ccccc2)C1 | – | inactive: -1.32%
CC1CN(C(=O)Cc2ccc(-c3ccccc3)cc2)CC(C)O1 (stereo not drawn) | inconclusive: 29.1 µM [inhibitor, single point] | –
COC(=O)c1ccccc1NC(=O)NC1CCC(C)CC1 (stereo not drawn) | inconclusive: 16.4 µM [activator, partial curve] | –
C=CCN(CC=C)CC(O)Cn1c2ccccc2c2ccccc21 (stereo not drawn) | inconclusive: 0.58 µM [inhibitor, single point] | –
Cc1nn(C(C)C(=O)NCCN2CCCCCC2)c(=O)c2nn(-c3ccccc3)c(C)c12 (stereo not drawn) | inconclusive: 25.9 µM [activator, partial curve, poor fit] | –
CC(C)CC(=O)Nc1ccc(N2CCOCC2)cc1 | inconclusive: 18.4 µM [activator, single point] | –
Cc1ccc([N+](=O)[O-])cc1NC1CC(O)C(CO)O1 (stereo not drawn) | inconclusive: 11.6 µM [activator, partial curve, poor fit] | –
Cc1cccn2c(=O)c3cc(C(=O)NCCCN4CCCC4=O)n(C)c3nc12 | – | inactive: 1.98%
COc1cc(/C=N/OCC(=O)Nc2cc(C)cc(C)c2)ccc1OCc1ccc(Cl)cc1 | inconclusive: 5.8 µM [activator, partial curve, poor fit] | –
CCOc1cc(/C=N/N=C(N)N)ccc1OCc1ccc(Cl)cc1 | – | inactive: -11.3%
COc1cccc(N2CCN(S(=O)(=O)c3ccc(-c4coc(C)n4)cc3)CC2)c1 | inconclusive: 11.6 µM [inhibitor, partial curve] | –

SMILES | Potency | activity change, negative = inhibition
COc1ccc(Cl)cc1C(=O)NCCS(=O)(=O)N1CCN(c2ccccc2F)CC1 | inconclusive: 29.1 µM [inhibitor, partial curve, poor fit] | –
O=C(NC(=S)Nc1sc2c(c1C(=O)O)CCCC2)c1ccccc1 | inconclusive: 18.3 µM [activator, partial curve, poor fit] | –
C=CCn1c(O)c(N=NC(=S)Nc2ccccc2F)c2cc(S(=O)(=O)N3CCOCC3)ccc21 | – | inactive: -20.3%
CCOC(=O)c1ccc(N/C=C\C(=O)c2cccc(OC)c2)cc1 | inconclusive: 18.4 µM [activator, single point] | –
C=CCn1c(N)nc2ccccc21 | – | inactive: -6.8%
O=C1COc2ccc(OCc3ccc(F)cc3)cc21 | inconclusive: 9.2 µM [activator, single point] | –
Cc1cccn2c(NCc3ccc4c(c3)OCO4)c(-c3ccc(O)cc3)nc12 | inconclusive: 23.1 µM [inhibitor, single point] | –
CN(C)Cc1c(O)ccc2occ(C(=O)c3ccc(F)cc3)c12 | inconclusive: 1.83 µM [inhibitor, partial curve, poor fit] | –
Cc1ccc2c(c1)c1ncnc(N3CCOCC3)c1n2C | inconclusive: 9.2 µM [activator, partial curve] | –
Cn1c(=O)c2nc(-c3ccc(Cl)cc3Cl)oc2c2ccccc21 | inconclusive: 6.51 µM [activator, partial curve, poor fit] | –
C/C(=N\Nc1ccc2nncn2n1)c1ccc(Cl)s1 | – | inactive: 1.1%
C=CCOn1c(=O)c(-c2ccccc2)[n+]([O-])c2ccccc21 | – | inactive: -0.209%
CCCc1cc(N2CCC(C(N)=O)CC2)nc(-c2ccccc2)n1 | inconclusive: 29.1 µM [inhibitor, single point] | –
COc1cccc(N/C=C/C(=O)c2ccc(C)cc2)c1 | inconclusive: 2.91 µM [activator, partial curve] | –
O=C(N/N=C/c1cc(Br)c(O)c(Br)c1O)c1cccnc1 | inconclusive: 29.1 µM [inhibitor, single point] | –
COc1ccc(C(C)=O)cc1COc1nc(C)nc2ccccc12 | – | inactive: 14.8%
COCCNC(=O)COc1cc(=O)n(C)c2ccccc12 | inconclusive: 20.6 µM [activator, partial curve, poor fit] | –
COc1ccc(N2CCN(C(=O)C3CCN(C(=O)c4ccc([N+](=O)[O-])cc4)CC3)CC2)cc1 | – | inactive: -10.2%
COc1ccc(C2=Nn3c(nnc3-c3ccccc3OC)SC2)cc1OC1CCCC1 | active: 20.6 µM | –
CCc1nnc(NC(=O)CN2CCCC(C)C2)s1 (stereo not drawn) | – | inactive: -6.01%
CC1=CCC(COC(=O)Nc2ccccc2)CC1 (stereo not drawn) | inconclusive: 16.4 µM [activator, partial curve] | –
CCN(CC)S(=O)(=O)c1ccc(N2C(=O)CC2(/C=C/c2ccccc2)C(=O)NC2CCCC2)cc1 (stereo not drawn) | – | inactive: -6.04%
COc1ccccc1NC(=O)Nc1ccc(C(=O)N2CCCCC2)cc1 | inconclusive: 18.3 µM [activator, partial curve, poor fit] | –
O=C(CSc1nc2ccccc2c(=O)n1-c1ccc(F)cc1)Nc1ccc(N2CCOCC2)cc1 | – | inactive: -20.6%
O=[N+]([O-])c1cc(-c2nnc(Nc3ccccc3)c3ccccc23)ccc1N1CCOCC1 | active: 18.4 µM | –

A second format for some results above:
O=C1COc2ccc(OCc3ccc(F)cc3)cc21
  Potency: inconclusive: 9.2 µM [activator, single point]
Cc1cccn2c(NCc3ccc4c(c3)OCO4)c(-c3ccc(O)cc3)nc12
  Potency: inconclusive: 23.1 µM [inhibitor, single point]
CN(C)Cc1c(O)ccc2occ(C(=O)c3ccc(F)cc3)c12
  Potency: inconclusive: 1.83 µM [inhibitor, partial curve, poor fit]

Next part.

SMILES | Potency | activity change, negative = inhibition
CSc1nc2ncc(-c3ccsc3)c(N)n2n1 | inconclusive: 16.4 µM [activator, single point] | –
Cc1ccc(S(=O)(=O)N(C)C)cc1NC(=O)COC(=O)/C=C/c1ccc2ccccc2n1 | inconclusive: 9.2 µM [activator, partial curve] | –
Cc1cn2c(N)c(/C=C3\C=Nc4ccccc43)c(=O)nc2s1 | inconclusive: 29.1 µM [activator, partial curve, poor fit] | –
COCCCN(C(=S)Nc1cc(C)cc(C)c1)C(C)c1ccncc1 (stereo not drawn) | – | inactive: 15.9%
O=c1c2ccccc2c(-c2ccccc2)nn1-c1cc(Cl)cc(Cl)c1 | inconclusive: 4.11 µM [activator, full curve, poor fit] | –
COc1cccc(/C=C2\SC(=S)N(CCC(=O)N3CCCCC3)C2=O)c1 | – | inactive: -4.64%
CC(Sc1nc(N)cc(=O)[nH]1)C(=O)NNC(=O)c1cccc(Cl)c1 (stereo not drawn) | inconclusive: 14.6 µM [activator, single point] | –
CC(c1ccccc1)N1CC(C(=O)N2CCN(Cc3ccc(C#N)cc3)CC2)CC1=O (stereo not drawn) | – | inactive: -17.5%
O=C(COC(=O)CNS(=O)(=O)c1ccc(Br)cc1Cl)Nc1ccc(N2CCOCC2)cc1 | – | inactive: 13%
COCCCNC(=S)N1CCC(C(=O)c2ccc(Cl)cc2)CC1 | inconclusive: 20.6 µM [inhibitor, single point] | –
O=Cc1ccc(Oc2cnccn2)cc1 | – | inactive: 2.99%
CCOC(=O)C1=C(C)NC(C)=C(C(=O)OCC)C1C(=O)OCC(=O)NCCc1ccccc1 | active: 23.1 µM | –
O=C(CCc1nc2ccccc2c(=O)[nH]1)Nc1nnc(SCc2ccccc2F)s1 | inconclusive: 14.6 µM [activator, partial curve] | –
COc1ccc(OCCC(=O)OCC(=O)NCCC2=CCCCC2)cc1 | inconclusive: 32.6 µM [inhibitor, partial curve, poor fit] | –
Nc1nc2ccccc2n1CCOc1ccc(F)cc1 | – | inactive: -25.1%
Cc1cccc(Cn2nc(C)cc2NC(=O)CCCn2ccc([N+](=O)[O-])n2)c1 | – | inactive: 25.3%
Cc1cccc(C)c1OCc1nnc(SCC(=O)Nc2ccccc2F)o1 | inconclusive: 16.4 µM [activator, partial curve, poor fit] | –
CCOC(=O)Cc1c(C)nc2c(C#N)c[nH]n2c1=O | – | inactive: 1.82%
COc1ccc(N2C(=NC(=O)CC3CCCCC3)SC3CS(=O)(=O)CC32)cc1 (stereo not drawn) | – | inactive: 9.1%
CCCCC#Cc1cncc(C(=O)N/N=C/c2cccc(OC)c2)c1 | inconclusive: 0.517 µM [activator, full curve, poor fit] | –
COc1ccc(Cc2c(N)nc(N)nc2N)cc1 | inconclusive: 35.5 µM [activator, single point] | –
Cn1c(SCC(=O)Nc2cccc(NC(=O)c3cccs3)c2)nnc1-c1ccncc1 | inconclusive: 29.1 µM [inhibitor, single point] | –
CCNc1ccc(C(=O)OCC(=O)N2CCCC2)cc1[N+](=O)[O-] | – | inactive: 8.69%
